Drawing on PMC9114391, this text covers binding for one molecule.

By UniProt entry, the sequences of proteins in these tests, tags left out.
UniProt Q07335: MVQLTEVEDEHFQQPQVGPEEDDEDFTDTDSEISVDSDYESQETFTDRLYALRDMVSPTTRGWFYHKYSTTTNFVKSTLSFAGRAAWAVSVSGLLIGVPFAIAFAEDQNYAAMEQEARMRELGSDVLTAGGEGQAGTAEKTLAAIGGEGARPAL

These are yes or no findings as the source states them, for the method shown. Some entries that bind do so weakly or less than the wild type.

The test concerns the target Tom22 with a hexahistidine tag at the C-terminus (Neurospora crassa) (UniProt Q07335). Kind of test: co-purification (Ni-NTA affinity and anion exchange chromatography, SDS-PAGE with Coomassie staining); mitochondria solubilised in 1% n-dodecyl-β-D-maltoside, 20% glycerol, 300 mM NaCl, 20 mM imidazole, 20 mM Tris-HCl pH 8.5; His-tagged Tom22 held on Ni-NTA, eluted with 300 mM imidazole; then Resource Q, 0-500 mM KCl.

B1: Tom6 (protein, UniProt Q1K6I2 1-60)
chain: MPSAKYIERPGGSRKSKGFIRSTYDSLTSSENASVVRSIAFFGAAVAFLSSSWGEMLVVQ
In the case of B1, the binding result is “binds”.
